Publication PMC6762210, “The monothiol glutaredoxin GrxD is essential for sensing iron starvation in Aspergillus fumigatus” (PLoS Genetics, 2019)
No constants are given. Whether binding was seen depends on the method and setting. For some of these results: In cells and extracts the contact can be indirect. Some entries that bind do so weakly or less than the wild type. Tags and fused reporters may be left off the sequences shown.

Legend:
[1] = target: T1, SreA (iron responsive transcription factor) (A. fumigatus (endogenous in A. fumigatus mycelia)) (UniProt Q4WV91); experiment: co-IP; HapX or SreA precipitated from whole cell lysates of PxylP:grxD^venus or PxylP:grxD^venusΔtrx with rabbit α-HapX or α-SreA antiserum covalently linked to Protein-A-Sepharose (preserum as control); mycelia grown without iron (HapX) or with 0.03 mM iron (SreA); 3 h at 4°C; washes with 110, 500 and 750 mM KCl; Venus detected with mouse α-GFP
T1 sequence: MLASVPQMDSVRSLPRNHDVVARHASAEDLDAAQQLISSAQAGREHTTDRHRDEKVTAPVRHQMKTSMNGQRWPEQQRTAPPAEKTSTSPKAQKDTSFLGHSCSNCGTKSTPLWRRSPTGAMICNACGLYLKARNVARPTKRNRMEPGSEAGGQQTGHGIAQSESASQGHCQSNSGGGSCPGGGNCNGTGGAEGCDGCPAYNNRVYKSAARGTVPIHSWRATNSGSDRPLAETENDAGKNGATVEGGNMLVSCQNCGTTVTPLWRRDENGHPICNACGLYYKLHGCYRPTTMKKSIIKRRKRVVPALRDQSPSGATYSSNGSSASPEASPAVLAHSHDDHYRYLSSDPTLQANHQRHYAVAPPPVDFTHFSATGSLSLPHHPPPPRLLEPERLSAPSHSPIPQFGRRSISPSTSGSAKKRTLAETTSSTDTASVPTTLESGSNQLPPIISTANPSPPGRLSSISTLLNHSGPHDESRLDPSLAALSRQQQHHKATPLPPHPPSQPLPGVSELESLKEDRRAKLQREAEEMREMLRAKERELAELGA

[2] = target: HapX (iron responsive transcription factor) (A. fumigatus (endogenous in A. fumigatus mycelia)) (UniProt Q4WER3); experiment: as above
[3] = target: T2, GrxD^His6 (full-length A. fumigatus GrxD with a C-terminal His-tag) (A. fumigatus) (UniProt Q4X024); experiment: pull-down; GrxD-His6 enriched from E. coli crude cell extract on a Ni-Sepharose column, untagged HapX^161-491 co-expressed; 50 mM HEPES pH 8.0, 300 mM NaCl, 2 mM glutathione, 10 mM imidazole; elution with 500 mM imidazole
T2 sequence: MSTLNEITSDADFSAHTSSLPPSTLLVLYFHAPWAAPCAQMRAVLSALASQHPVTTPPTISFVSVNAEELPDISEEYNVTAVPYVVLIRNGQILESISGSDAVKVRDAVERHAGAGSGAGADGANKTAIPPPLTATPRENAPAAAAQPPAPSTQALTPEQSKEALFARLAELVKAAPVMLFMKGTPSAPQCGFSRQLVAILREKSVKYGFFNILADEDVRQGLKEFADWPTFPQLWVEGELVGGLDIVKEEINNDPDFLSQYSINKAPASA

[4] = target: GrxD (recombinant full-length GrxD after removal of the His-tag by TEV protease) (A. fumigatus) (UniProt Q4X024); experiment: SEC; Ni-chelate eluate digested with TEV protease and loaded on Superdex 200 prep grade 26/60 in 25 mM HEPES pH 7.5, 150 mM NaCl, 2 mM glutathione; apparent masses from protein calibration standards; fractions checked by SDS-PAGE; both purified

B1: GrxD^Venus (full-length A. fumigatus monothiol glutaredoxin GrxD, C-terminally tagged with Venus) (protein, UniProt Q4X024 1-271)
chain: MSTLNEITSDADFSAHTSSLPPSTLLVLYFHAPWAAPCAQMRAVLSALASQHPVTTPPTISFVSVNAEELPDISEEYNVTAVPYVVLIRNGQILESISGSDAVKVRDAVERHAGAGSGAGADGANKTAIPPPLTATPRENAPAAAAQPPAPSTQALTPEQSKEALFARLAELVKAAPVMLFMKGTPSAPQCGFSRQLVAILREKSVKYGFFNILADEDVRQGLKEFADWPTFPQLWVEGELVGGLDIVKEEINNDPDFLSQYSINKAPASA
B1 was tested, and the binding [1] was “binds” and the binding [2] was “binds”.

B2: HapX^161-491 (A. fumigatus HapX C-terminus with all four cysteine-rich regions) (domain or fragment, UniProt Q4WER3 161-491, looked up)
chain: KGLAPLTTSTPQARSSDRPDNGDASNNDSGEGREEVPLGCNDCSTSHCQCIEDAFTMPGVVAQEQSRRLDTTKPGLSEPQIKPDPEEMEIDFTSRFAATQQQDQSPTSVSSPAVDPCGFCSDGTPCICAEMAAQEEQRPRRNSFENNRLAPIQNLSQFTPPPSDGDVRSDVTLPPISQATNPCANGPGTCAQCLADPRRTLFCKTLAASRSPSAAPSGCCGGKGADGGCCQSRNTNVSRGRSGSNNNTSSGSSAAPSLTLSCADAYTTLSRHPNFSRATDELSTWLPKLHTLPKPRDFPLTDRGVPRAALEVEAASVMGVLRYFDRRFADK
notes: HapX of Aspergillus fumigatus (Afu5g03920), amino acids 161-491 (cysteine-rich C-terminus), from a synthetic gene; also called AfuHapX^161-491; pnCS-HapX161-491; source: E. coli BL21(DE3), untagged, bicistronically co-expressed with GrxD-His6; in crude cell extract, then co-purified (Ni-Sepharose, SEC)
With B2 the binding [3] was “binds”.

B3: GrxD (recombinant full-length GrxD after removal of the His-tag by TEV protease) (protein, UniProt Q4X024 1-271)
chain: MSTLNEITSDADFSAHTSSLPPSTLLVLYFHAPWAAPCAQMRAVLSALASQHPVTTPPTISFVSVNAEELPDISEEYNVTAVPYVVLIRNGQILESISGSDAVKVRDAVERHAGAGSGAGADGANKTAIPPPLTATPRENAPAAAAQPPAPSTQALTPEQSKEALFARLAELVKAAPVMLFMKGTPSAPQCGFSRQLVAILREKSVKYGFFNILADEDVRQGLKEFADWPTFPQLWVEGELVGGLDIVKEEINNDPDFLSQYSINKAPASA
For B3, the binding [4] was “no binding”.
